Results reported in patent US20190367613A1 (JOUNCE THERAPEUTICS, published 2019).
No constants are given. Whether binding was seen depends on the method and setting. Some entries that bind do so weakly or less than the wild type.

Biological target: T1, Mouse (Mus musculus) ICOS (mouse) (UniProt Q9WVS0)
T1 sequence: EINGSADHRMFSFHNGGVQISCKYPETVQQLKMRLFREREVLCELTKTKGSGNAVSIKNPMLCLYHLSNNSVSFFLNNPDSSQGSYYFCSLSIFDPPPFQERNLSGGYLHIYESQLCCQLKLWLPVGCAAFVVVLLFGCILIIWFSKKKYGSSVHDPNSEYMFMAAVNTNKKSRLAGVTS
Test: flow cytometry on mouse whole-blood CD4+ T cells stained with JTX-2011 DyLight650

B1: JTX-2011 (antibody, V domains shown)
VH: EVQLVESGGGLVQPGGSLRLSCAASGFTFSDYWMDWVRQAPGKGLVWVSNIDEDGSITEYSPFVKGRFTISRDNAKNTLYLQMNSLRAEDTAVYYCTRWGRFGFDSWGQGTLVTVSS
VL: DIVMTQSPDSLAVSLGERATINCKSSQSLLSGSFNYLTWYQQKPGQPPKLLIFYASTRHTGVPDRFSGSGSGTDFTLTISSLQAEDVAVYYCHHHYNAPPTFGPGTKVDIKR
  binding: binds
